Measured values published in patent publication US20090081707A1 (published 2009).
No constants are given. Whether binding was seen depends on the method and setting. Some entries that bind do so weakly or less than the wild type.

By UniProt entry, the sequences of proteins in these tests, tags left out. Where a name states a change or a piece, a line headed by the entry shows the natural chain unless it says otherwise.
UniProt Q16620: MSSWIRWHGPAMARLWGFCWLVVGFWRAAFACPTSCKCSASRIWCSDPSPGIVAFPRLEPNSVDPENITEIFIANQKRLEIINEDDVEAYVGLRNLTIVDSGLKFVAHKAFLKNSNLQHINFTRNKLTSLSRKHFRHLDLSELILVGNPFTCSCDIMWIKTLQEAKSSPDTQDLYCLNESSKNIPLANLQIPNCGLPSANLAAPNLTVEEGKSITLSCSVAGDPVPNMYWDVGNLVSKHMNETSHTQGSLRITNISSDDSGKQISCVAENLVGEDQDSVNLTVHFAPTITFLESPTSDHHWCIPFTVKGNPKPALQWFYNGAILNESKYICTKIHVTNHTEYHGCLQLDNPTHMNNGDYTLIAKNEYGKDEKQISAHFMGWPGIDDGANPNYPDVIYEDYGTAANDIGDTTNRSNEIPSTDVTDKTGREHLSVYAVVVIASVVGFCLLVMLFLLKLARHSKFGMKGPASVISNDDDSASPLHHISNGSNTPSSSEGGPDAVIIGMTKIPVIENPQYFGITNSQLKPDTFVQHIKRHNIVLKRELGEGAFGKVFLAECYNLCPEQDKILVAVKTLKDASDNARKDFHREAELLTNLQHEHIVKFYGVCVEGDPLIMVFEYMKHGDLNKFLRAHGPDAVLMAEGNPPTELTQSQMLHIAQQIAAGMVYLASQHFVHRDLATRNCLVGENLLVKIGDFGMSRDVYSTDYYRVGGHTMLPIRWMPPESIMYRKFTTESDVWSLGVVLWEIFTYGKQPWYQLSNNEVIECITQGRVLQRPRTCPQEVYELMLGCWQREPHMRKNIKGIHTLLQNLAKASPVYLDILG
UniProt P18280: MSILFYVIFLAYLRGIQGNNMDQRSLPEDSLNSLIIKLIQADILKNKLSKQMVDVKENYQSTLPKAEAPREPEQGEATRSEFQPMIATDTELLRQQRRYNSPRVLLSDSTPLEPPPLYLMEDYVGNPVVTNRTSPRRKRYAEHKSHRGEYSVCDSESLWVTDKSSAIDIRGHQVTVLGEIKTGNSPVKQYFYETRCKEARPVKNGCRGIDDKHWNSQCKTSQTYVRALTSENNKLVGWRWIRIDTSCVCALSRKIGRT

B1: neurotrophin-4/5 (NT-4/5) (ligand)
chain: GVSETAPASRRGELAVCDAVSGWVTDRRTAVDLRGREVEVLGEVPAAGGSPLRQYFFETRCKADNAEEGGPGAGGGGCRGVDRRHWVSECKAKQSYVRALTADAQGRVGWRWIRIDTACVCTLLSRTGRA
notes: also called NT5

Target: trkB-IgG immunoadhesin (chimera of human trkB extracellular domain with human IgG-1 Fc) (human) (UniProt Q16620)
Test: competitive displacement of iodinated neurotrophin from trk-IgG

Row | Molecule | binding
1 | neurotrophin-3 (NT-3) (from UniProt P18280 140-258) (ligand) | binds
2 | B1 | binds
